Substitutions are numbered along the chain they refer to. Results are given in words; binding and its absence hold for the method and conditions named. For some of these results: In cells and extracts the contact can be indirect. Some binding calls cover weakened binding; strength is not graded here. For some of these results: Tags and fused reporters may be left off the sequences shown.

The target of assay [1] is T1, GST-RTTN-N (1–889) recombinant protein (human) (UniProt Q86VV8).
T1 sequence: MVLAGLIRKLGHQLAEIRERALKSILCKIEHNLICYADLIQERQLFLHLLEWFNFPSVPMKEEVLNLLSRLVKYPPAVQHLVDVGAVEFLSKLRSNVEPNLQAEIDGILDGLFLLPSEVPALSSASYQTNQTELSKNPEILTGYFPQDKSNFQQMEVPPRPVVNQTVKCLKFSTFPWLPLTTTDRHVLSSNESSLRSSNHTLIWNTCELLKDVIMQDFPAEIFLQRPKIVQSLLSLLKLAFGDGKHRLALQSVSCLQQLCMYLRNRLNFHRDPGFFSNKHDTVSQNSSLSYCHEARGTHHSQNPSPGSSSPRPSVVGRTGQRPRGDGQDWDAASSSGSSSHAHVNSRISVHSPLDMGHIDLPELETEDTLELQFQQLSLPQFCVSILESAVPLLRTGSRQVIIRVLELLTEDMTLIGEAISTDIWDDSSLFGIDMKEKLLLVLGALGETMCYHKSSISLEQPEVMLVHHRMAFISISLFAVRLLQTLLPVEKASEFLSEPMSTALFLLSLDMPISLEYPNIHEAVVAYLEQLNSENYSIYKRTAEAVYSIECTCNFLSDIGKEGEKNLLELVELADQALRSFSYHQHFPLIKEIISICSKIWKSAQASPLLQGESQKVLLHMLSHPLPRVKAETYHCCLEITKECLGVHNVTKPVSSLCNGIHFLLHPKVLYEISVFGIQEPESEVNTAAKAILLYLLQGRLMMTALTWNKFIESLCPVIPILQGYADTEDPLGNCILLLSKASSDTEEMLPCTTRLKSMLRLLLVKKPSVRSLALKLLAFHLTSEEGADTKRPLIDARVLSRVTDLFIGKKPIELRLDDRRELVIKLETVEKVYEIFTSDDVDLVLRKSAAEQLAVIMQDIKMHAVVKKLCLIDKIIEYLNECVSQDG
In words: pull-down; GST-RTTN-N immobilised on glutathione-agarose beads, incubated with lysates of HEK293T cells transfected with Flag-STIL constructs, 4 °C for 3 h, washed with NP-40 lysis buffer, western blot; only the target purified. (In general: A western blot detects proteins with antibodies after separation by electrophoresis.)

The target in assay [2] is T2, RTTN-N (aa 1–889), yeast two-hybrid bait, wild type (human) (UniProt Q86VV8).
T2 sequence: T1 sequence
In words: two-hybrid; Matchmaker Gold; RTTN in pGBKT7 as bait, STIL in pGADT7 as prey; growth of mating colonies on QDO plates at 30 °C.

In assay [3] the target is T2, RTTN-N (aa 1–889), yeast two-hybrid bait, wild type (human). Description: two-hybrid; Matchmaker Gold; RTTN-N bait, STIL prey; liquid β-galactosidase assay with ONPG, diploids grown in DDO medium; relative to STIL (1–628) with RTTN-N (WT) set to 100%.
Assay [4] deals with T3, RTTN-N-A578P, yeast two-hybrid bait (human) (UniProt Q86VV8).
T3 sequence: T1 sequence with A578P
Described as above.

B1: Flag-tagged STIL (aa 620–1288) (domain or fragment, UniProt Q15468-2 620-1288)
chain: WQGANTVGSIQDVQSEALQKHSLFHPSGCPALYCNAFCSSSSPIALRPQGDMGSCSPHSNIEPSPVARPPSHMDLCNPQPCTVCMHTPKTESDNGMMGLSPDAYRFLTEQDRQLRLLQAQIQRLLEAQSLMPCSPKTTAVEDTVQAGRQMELVSVEAQSSPGLHMRKGVSIAVSTGASLFWNAAGEDQEPDSQMKQDDTKISSEDMNFSVDINNEVTSLPGSASSLKAVDIPSFEESNIAVEEEFNQPLSVSNSSSLVVRKEPDVPVFFPSGQLAESVSMCLQTGPTGGASNNSETSEEPKIEHVMQPLLHQPSDNQKIYQDLLGQVNHLLNSSSKETEQPSTKAVIISHECTRTQNVYHTKKKTHHSRLVDKDCVLNATLKQLRSLGVKIDSPTKVKKNAHNVDHASVLACISPEAVISGLNCMSFANVGMSGLSPNGVDLSMEANAIALKYLNENQLSQLSVTRSNQNNCDPFSLLHINTDRSTVGLSLISPNNMSFATKKYMKRYGLLQSSDNSEDEEEPPDNADSKSEYLLNQNLRSIPEQLGGQKEPSKNDHEIINCSNCESVGTNADTPVLRNITNEVLQTKAKQQLTEKPAFLVKNLKPSPAVNLRTGKAEFTQHPEKENEGDITIFPESLQPSETLKQMNSMNSVGTFLDVKRLRQLPKLF
Turning to B1, the binding entry in assay [1] is listed as “no binding”.

B2: Flag-tagged STIL (aa 420–781) (domain or fragment, UniProt Q15468-2 420-781)
chain: IQPSVPELSLVLDGNFIESNPLPTPLEMVNNENPPLINHLEHLKPLQPQLYDEKHSPEVEAGEPSLRGIPNQLNQDKPALLRHCKVRQPPAYKKGNPHTRNSIKPSSHNGPSHDIFEKLQTVSAGNVQNEEYPIRPSTLNSRQSSLAPQSQPHDFVFSPHNSGRPMELQIPTPPLPSYCSTNVCRCCQHHSHIQYSPLNSWQGANTVGSIQDVQSEALQKHSLFHPSGCPALYCNAFCSSSSPIALRPQGDMGSCSPHSNIEPSPVARPPSHMDLCNPQPCTVCMHTPKTESDNGMMGLSPDAYRFLTEQDRQLRLLQAQIQRLLEAQSLMPCSPKTTAVEDTVQAGRQMELVSVEAQSSPG
In the case of B2, the binding entry in assay [1] was “no binding”.

B3: Flag-tagged STIL (aa 1–781) (domain or fragment, UniProt Q15468-2 1-781)
chain: MEPIYPFARPQMNTRFPSSRMVPFHFPPSKCALWNPTPTGDFIYLHLSYYRNPKLVVTEKTIRLAYRHAKQNKKNSSCFLLGSLTADEDEEGVTLTVDRFDPGREVPECLEITPTASLPGDFLIPCKVHTQELCSREMIVHSVDDFSSALKALQCHICSKDSLDCGKLLSLRVHITSRESLDSVEFDLHWAAVTLANNFKCTPVKPIPIIPTALARNLSSNLNISQVQGTYKYGYLTMDETRKLLLLLESDPKVYSLPLVGIWLSGITHIYSPQVWACCLRYIFNSSVQERVFSESGNFIIVLYSMTHKEPEFYECFPCDGKIPDFRFQLLTSKETLHLFKNVEPPDKNPIRCELSAESQNAETEFFSKASKNFSIKRSSQKLSSGKMPIHDHDSGVEDEDFSPRPIPSPHPVSQKISKIQPSVPELSLVLDGNFIESNPLPTPLEMVNNENPPLINHLEHLKPLQPQLYDEKHSPEVEAGEPSLRGIPNQLNQDKPALLRHCKVRQPPAYKKGNPHTRNSIKPSSHNGPSHDIFEKLQTVSAGNVQNEEYPIRPSTLNSRQSSLAPQSQPHDFVFSPHNSGRPMELQIPTPPLPSYCSTNVCRCCQHHSHIQYSPLNSWQGANTVGSIQDVQSEALQKHSLFHPSGCPALYCNAFCSSSSPIALRPQGDMGSCSPHSNIEPSPVARPPSHMDLCNPQPCTVCMHTPKTESDNGMMGLSPDAYRFLTEQDRQLRLLQAQIQRLLEAQSLMPCSPKTTAVEDTVQAGRQMELVSVEAQSSPG
Take B3: the binding entry in assay [1] is “binds”.

B4: Flag-tagged STIL (aa 1–628) (domain or fragment, UniProt Q15468-2 1-628)
chain: MEPIYPFARPQMNTRFPSSRMVPFHFPPSKCALWNPTPTGDFIYLHLSYYRNPKLVVTEKTIRLAYRHAKQNKKNSSCFLLGSLTADEDEEGVTLTVDRFDPGREVPECLEITPTASLPGDFLIPCKVHTQELCSREMIVHSVDDFSSALKALQCHICSKDSLDCGKLLSLRVHITSRESLDSVEFDLHWAAVTLANNFKCTPVKPIPIIPTALARNLSSNLNISQVQGTYKYGYLTMDETRKLLLLLESDPKVYSLPLVGIWLSGITHIYSPQVWACCLRYIFNSSVQERVFSESGNFIIVLYSMTHKEPEFYECFPCDGKIPDFRFQLLTSKETLHLFKNVEPPDKNPIRCELSAESQNAETEFFSKASKNFSIKRSSQKLSSGKMPIHDHDSGVEDEDFSPRPIPSPHPVSQKISKIQPSVPELSLVLDGNFIESNPLPTPLEMVNNENPPLINHLEHLKPLQPQLYDEKHSPEVEAGEPSLRGIPNQLNQDKPALLRHCKVRQPPAYKKGNPHTRNSIKPSSHNGPSHDIFEKLQTVSAGNVQNEEYPIRPSTLNSRQSSLAPQSQPHDFVFSPHNSGRPMELQIPTPPLPSYCSTNVCRCCQHHSHIQYSPLNSWQGANTVGS
For the molecule B4, the binding entry in assay [1] is “binds”.

B5: truncated STIL (1–628), yeast two-hybrid prey (domain or fragment, UniProt Q15468-2 1-628)
chain: B4 chain
Take B5: the values for the binding entry in assay [2], in assay [3] and in assay [4] were “binds”, “binds” and “binds weakly”, respectively.

Source of the values: paper PMC5558016.
